From paper PMC7470938
No constants are given. Whether binding was seen depends on the method and setting. Binding can be weak; no strength is given.

Molecular target: E. coli RecA(E38K) protein (E. coli)
Test: SPR; BIAcore T200, streptavidin chip; RecA(E38K) filaments assembled on immobilised biotinylated dsDNA; 0.65 uM pol IV injected for 220 s at 5 ul/min, then buffer; 20 C; 20 mM Tris-HCl pH 8.0, 10 mM KCl, 10 mM MgCl2, 0.005% surfactant P20, 0.5 mM dithiothreitol, 0.5 mM ATPgammaS; signal corrected with a flow cell without DNA and for the amount of immobilised RecA(E38K); both purified

B1: DNA polymerase IV (pol IV) (enzyme, UniProt Q47155 1-351)
chain: MRKIIHVDMDCFFAAVEMRDNPALRDIPIAIGGSRERRGVISTANYPARKFGVRSAMPTGMALKLCPHLTLLPGRFDAYKEASNHIREIFSRYTSRIEPLSLDEAYLDVTDSVHCHGSATLIAQEIRQTIFNELQLTASAGVAPVKFLAKIASDMNKPNGQFVITPAEVPAFLQTLPLAKIPGVGKVSAAKLEAMGLRTCGDVQKCDLVMLLKRFGKFGRILWERSQGIDERDVNSERLRKSVGVERTMAEDIHHWSECEAIIERLYPELERRLAKVKPDLLIARQGVKLKFDDFQQTTQEHVWPRLNKADLIATARKTWDERRGGRGVRLVGLHVTLLDPQMERQLVLGL
For B1, which binding is on record?
The binding was “binds”.
